# Laboratory results: the supplement of paper PMC9135407
# Values joined by “and” are separate entries in the source; they are usually repeats but may differ in a detail not shown here. Equal entries are not always repeated. Structures can show the parent of a compound that is named as a salt. ± gives the standard deviation of the averaged measurements. Some of the results follow. Part of the spread comes from offsets between plates or batches.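 Culture-activated primary human stellate myofibroblasts, where regained lipid droplets signal inactivation. Value: share of Hoechst-counted cells above a per-plate Bodipy cutoff, in duplicate wells, with DMSO negative and nortriptyline positive controls on each plate. Hits: a control-normalized score above the plate's top-tenth-percentile nortriptyline wells, or one of a plate's three best wells. Final well concentrations are not given.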
# Tested on: primary human hepatic stellate cells (donor 1)
# Test: percent Bodipy-positive cells; higher = more lipid droplet accumulation
# Settings: 48 h
# Experimental: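 Primary lipid accumulation screen in primary human hepatic stellate cell myofibroblasts (donor 1, passage 8) in 384-well plates. 100 nL of library compound was pin-transferred into 30 µL medium in duplicate, and cells were treated for 48 h. The 'Scaled' score combines distance from plate baseline, toxicity and reproducibility penalties, and is normalised to nortriptyline (positive) and DMSO (negative) controls on each plate. A hit is defined as scaled >0.85 or among the top 3 wells per plate.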
# [1] = library stock concentration: 3.33 mM
# [2] = library stock concentration: 10 mM
# [3] = library stock concentration: 1 mM
compound,measurement,setting,value
CC(=O)Nc1ccccc1 [Acetanilide],percent Bodipy-positive cells,[1],10.9 ± 3.6%
same,percent Bodipy-positive cells,[2],23.1% and 36.8%
O=C(/C=C/c1ccc2ccccc2n1)c1ccncc1,percent Bodipy-positive cells,[1],100%
same,percent Bodipy-positive cells,[2],95.15 ± 0.12%
Cc1cc(C(N)=O)ccc1-n1c(CCC(=O)O)ccc1-c1ccc(-n2ccnc2)cc1,percent Bodipy-positive cells,[1],38.7 ± 0.33%
same,percent Bodipy-positive cells,[2],26.3 ± 5.8%
CCCCCCCC/C=C\CCCCCCCCCCCCCC(=O)NCCS(=O)(=O)O [N-Nervonoyl Taurine],percent Bodipy-positive cells,[3],11.9 ± 0.21%
CCCCCCCCCC(=O)CC(=O)N[C@H]1CCOC1=O [N-3-oxo-dodecanoyl-L-Homoserine lactone],percent Bodipy-positive cells,[3],7.4 ± 0.41%
COC(c1ccccc1)(c1ccccc1)[C@H](Oc1nc(C)cc(C)n1)C(=O)O [Ambrisentan],percent Bodipy-positive cells,[1],4.83 ± 1.3%
same,percent Bodipy-positive cells,[2],10.4 ± 4%
COC(=O)C1=C(C)NC(C)=C(C(=O)OCCN2CCN(C(c3ccccc3)c3ccccc3)CC2)C1c1cccc([N+](=O)[O-])c1 (stereo not given) [Manidipine],percent Bodipy-positive cells,[1],14.4 ± 3.3%
same,percent Bodipy-positive cells,[2],23.6 ± 2.4%
COC(=O)C1=C(C)NC(C)=C(C(=O)OCCN2CCN(C(c3ccccc3)c3ccccc3)CC2)C1c1cccc([N+](=O)[O-])c1 (stereo not given) [Manidipine 2HCl],percent Bodipy-positive cells,[1],11.2 ± 2.4%
same,percent Bodipy-positive cells,[2],23.5 ± 1.2%
COC(=O)C1=C(C)NC(C)=C(C(=O)OCCN2CCN(C(c3ccccc3)c3ccccc3)CC2)C1c1cccc([N+](=O)[O-])c1 (stereo not given),percent Bodipy-positive cells,[2],74.6 ± 6.8%
CC(C)N(C[C@H]1O[C@@H](n2cnc3c(N)ncnc32)[C@H](O)[C@@H]1O)[C@H]1C[C@@H](CCc2nc3cc(C(C)(C)C)ccc3[nH]2)C1,percent Bodipy-positive cells,[1],11.64 ± 0.1%
same,percent Bodipy-positive cells,[2],66.1 ± 5.6%
C=Cc1c(C)c2cc3[nH]c(cc4nc(cc5nc(cc1[nH]2)C(C)=C5CCC(=O)O)C(CCC(=O)O)=C4C)c(C)c3C=C [Protoporphyrin IX disodium],percent Bodipy-positive cells,[2],56.77 ± 0.23%
Cc1ccc(O)c(N=Nc2ccccc2)n1,percent Bodipy-positive cells,[2],22% and 7.13%
Cc1c(C)c2c(c(C)c1O)CCC(C)(COc1ccc(CC3SC(=O)NC3=O)cc1)O2 (stereo not given) [Troglitazone],percent Bodipy-positive cells,[3],6.9 ± 4.7%
same,percent Bodipy-positive cells,library stock concentration: 4.5 mM,5.79% and 12.6%
C[C@]1(OC(=O)/C=C/c2ccccc2)C[C@@H](O)[C@]2(O)C=CO[C@@H](O[C@@H]3O[C@H](CO)[C@@H](O)[C@H](O)[C@H]3O)[C@@H]21 [Harpagoside],percent Bodipy-positive cells,,7.72 ± 2.3%
C[N+]1(C)[C@@H]2CC[C@H]1C[C@@H](OC(=O)C(O)c1ccccc1)C2 (stereo not given in full) [Homatropine methylbromide],percent Bodipy-positive cells,library stock concentration: 5.4 mM,4.61 ± 2%
same,percent Bodipy-positive cells,[2],21.4 ± 0.61%
C[N+]1(C)[C@@H]2CC[C@H]1C[C@@H](OC(=O)C(O)c1ccccc1)C2 (stereo not given in full) [Homatropine Methylbromide],percent Bodipy-positive cells,[1],11.1 ± 0.82%
same,percent Bodipy-positive cells,[2],26.9 ± 10%
"O=P(O)(O)O[C@@H]1[C@H](O)[C@H](O)[C@@H](OP(=O)(O)O)[C@H](OP(=O)(O)O)[C@H]1O [D-myo-Inositol-1,4,5-triphosphate (sodium salt)]",percent Bodipy-positive cells,[3],11.3 ± 0.36%
CC(=O)NC(C(=O)O)c1ccccc1 (stereo not given),percent Bodipy-positive cells,[2],28.8 ± 2.5%
S=C(S)OC1CC2CC1C1CCCC21 [D-609 potassium],percent Bodipy-positive cells,[2],23.9 ± 12%
Oc1ncnc2[nH]ncc12 [Allopurinol],percent Bodipy-positive cells,[1],9.386 ± 0.061%
same,percent Bodipy-positive cells,library stock concentration: 14.7 mM,7.79% and 2.02%
CN(N=O)C(=O)NC1C(O)OC(CO)C(O)C1O (stereo not given) [Streptozotocin (STZ)],percent Bodipy-positive cells,[1],10.3 ± 4%
same,percent Bodipy-positive cells,[2],17.2 ± 4.4%
O=[N+]([O-])c1ccc(-c2nc(-c3ccc(F)cc3)c(-c3ccncc3)[nH]2)cc1,percent Bodipy-positive cells,[3],14.8 ± 9.6%
same,percent Bodipy-positive cells,[1],14.1 ± 1.9%
same,percent Bodipy-positive cells,[2],47.6 ± 3.4%
C=C[C@]1(C)C[C@@H](OC(=O)CS[C@@H]2C[C@H]3CC[C@@H](C2)N3C)[C@]2(C)[C@H](C)CC[C@]3(CCC(=O)[C@H]32)[C@@H](C)[C@@H]1O [Retapamulin],percent Bodipy-positive cells,[1],36.1 ± 2.5%
"CCCCC(C)(C)[C@H](O)/C=C/[C@H]1C(=O)C[C@H](O)[C@@H]1C/C=C\CCCC(=O)O [16,16-dimethyl Prostaglandin D2]",percent Bodipy-positive cells,[3],10.9 ± 0.5%
CC(=O)N(O)[C@@H]1c2cc(C#N)ccc2OC(C)(C)[C@H]1O,percent Bodipy-positive cells,[2],9.87 ± 0.25%
O=C(CCc1ccc(O)cc1)c1c(O)cc(O)cc1O[C@@H]1O[C@H](CO)[C@@H](O)[C@H](O)[C@H]1O [Phlorizin],percent Bodipy-positive cells,[1],13.6 ± 5%
same,percent Bodipy-positive cells,[2],11.9 ± 2.1%
C[C@]12CCC(=O)C=C1CC[C@@H]1[C@@H]2[C@@H](O)C[C@@]2(C)[C@H]1CC[C@]2(O)C(=O)CO [Hydrocortisone base],percent Bodipy-positive cells,,17.8 ± 0.88%
C[C@]12CCC(=O)C=C1CC[C@@H]1[C@@H]2[C@@H](O)C[C@@]2(C)[C@H]1CC[C@]2(O)C(=O)CO [Hydrocortisone],percent Bodipy-positive cells,[1],6.66 ± 1.9%
C[C@]12CCC(=O)C=C1CC[C@@H]1[C@@H]2[C@@H](O)C[C@@]2(C)[C@H]1CC[C@]2(O)C(=O)CO,percent Bodipy-positive cells,[2],21.7 ± 2.8%
O=C(O)CCC/C=C\C[C@@H]1[C@@H](CCC(=O)CCc2ccccc2)[C@H](O)C[C@@H]1O [15-keto Latanoprost (free acid)],percent Bodipy-positive cells,[3],19.1 ± 2.1%
CCCCC[C@H](O)/C=C/[C@@H]1[C@@H](C/C=C\CCCCN(C)C)[C@@H](O)C[C@H]1O [Prostaglandin F2.alpha. dimethyl amine],percent Bodipy-positive cells,[3],16.1 ± 5.1%
CCCCCCC[N+](CC)(CC)CCCCc1ccc(Cl)cc1 [Clofilium tosylate],percent Bodipy-positive cells,,18.5 ± 10%
CNCCCC1c2ccccc2C=Cc2ccccc21 [Protryptyline hydrochloride],percent Bodipy-positive cells,library stock concentration: 6.7 mM,72.2 ± 2.9%
CCOC(=O)C1=C[C@@H](OC(CC)CC)[C@H](NC(C)=O)[C@@H](N)C1,percent Bodipy-positive cells,[2],41.7 ± 5.9%
CCOC(=O)C1=C[C@@H](OC(CC)CC)[C@H](NC(C)=O)[C@@H](N)C1 [Oseltamivir tartrate],percent Bodipy-positive cells,[2],45.2 ± 1.1%

# Some of the entries so far, bar-delimited.
compound | measurement | setting | value
O=C(CCc1ccc(O)cc1)c1c(O)cc(O)cc1O[C@@H]1O[C@H](CO)[C@@H](O)[C@H](O)[C@H]1O [Phlorizin] | percent Bodipy-positive cells | [1] | 13.6 ± 5%
same | percent Bodipy-positive cells | [2] | 11.9 ± 2.1%
C[C@]12CCC(=O)C=C1CC[C@@H]1[C@@H]2[C@@H](O)C[C@@]2(C)[C@H]1CC[C@]2(O)C(=O)CO [Hydrocortisone base] | percent Bodipy-positive cells |  | 17.8 ± 0.88%
C[C@]12CCC(=O)C=C1CC[C@@H]1[C@@H]2[C@@H](O)C[C@@]2(C)[C@H]1CC[C@]2(O)C(=O)CO [Hydrocortisone] | percent Bodipy-positive cells | [1] | 6.66 ± 1.9%
C[C@]12CCC(=O)C=C1CC[C@@H]1[C@@H]2[C@@H](O)C[C@@]2(C)[C@H]1CC[C@]2(O)C(=O)CO | percent Bodipy-positive cells | [2] | 21.7 ± 2.8%
O=C(O)CCC/C=C\C[C@@H]1[C@@H](CCC(=O)CCc2ccccc2)[C@H](O)C[C@@H]1O [15-keto Latanoprost (free acid)] | percent Bodipy-positive cells | [3] | 19.1 ± 2.1%
CCCCC[C@H](O)/C=C/[C@@H]1[C@@H](C/C=C\CCCCN(C)C)[C@@H](O)C[C@H]1O [Prostaglandin F2.alpha. dimethyl amine] | percent Bodipy-positive cells | [3] | 16.1 ± 5.1%
CCCCCCC[N+](CC)(CC)CCCCc1ccc(Cl)cc1 [Clofilium tosylate] | percent Bodipy-positive cells |  | 18.5 ± 10%
CNCCCC1c2ccccc2C=Cc2ccccc21 [Protryptyline hydrochloride] | percent Bodipy-positive cells | library stock concentration: 6.7 mM | 72.2 ± 2.9%
CCOC(=O)C1=C[C@@H](OC(CC)CC)[C@H](NC(C)=O)[C@@H](N)C1 | percent Bodipy-positive cells | [2] | 41.7 ± 5.9%
CCOC(=O)C1=C[C@@H](OC(CC)CC)[C@H](NC(C)=O)[C@@H](N)C1 [Oseltamivir tartrate] | percent Bodipy-positive cells | [2] | 45.2 ± 1.1%
